This series addresses T1, Glucocorticoid receptor (GR) (UniProt P06536).
T1 sequence (looked up, limits assumed): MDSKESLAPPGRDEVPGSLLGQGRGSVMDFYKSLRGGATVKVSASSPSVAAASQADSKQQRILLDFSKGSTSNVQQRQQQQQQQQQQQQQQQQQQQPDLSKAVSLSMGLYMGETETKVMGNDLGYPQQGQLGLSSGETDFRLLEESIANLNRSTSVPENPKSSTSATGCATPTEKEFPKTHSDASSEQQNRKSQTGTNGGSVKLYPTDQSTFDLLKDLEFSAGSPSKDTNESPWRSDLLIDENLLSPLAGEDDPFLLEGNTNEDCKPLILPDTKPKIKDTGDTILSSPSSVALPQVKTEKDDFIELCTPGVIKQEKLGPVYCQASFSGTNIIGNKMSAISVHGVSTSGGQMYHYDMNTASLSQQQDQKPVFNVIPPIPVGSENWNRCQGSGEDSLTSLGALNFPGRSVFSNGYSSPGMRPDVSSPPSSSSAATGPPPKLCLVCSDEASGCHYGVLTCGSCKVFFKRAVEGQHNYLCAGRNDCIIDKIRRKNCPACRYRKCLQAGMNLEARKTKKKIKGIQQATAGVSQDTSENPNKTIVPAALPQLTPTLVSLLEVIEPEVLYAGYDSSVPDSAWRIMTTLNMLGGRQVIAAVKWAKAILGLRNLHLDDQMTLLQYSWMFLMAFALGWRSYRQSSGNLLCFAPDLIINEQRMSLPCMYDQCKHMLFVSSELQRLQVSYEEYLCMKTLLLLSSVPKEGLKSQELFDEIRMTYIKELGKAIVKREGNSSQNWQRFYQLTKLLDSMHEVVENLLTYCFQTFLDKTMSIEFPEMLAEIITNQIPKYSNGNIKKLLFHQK
The series can be described thus: EMSA with immunoblot of the gel (anti-GR). Conditions: 5 mM MgCl2, 50 nM probe, 2.5 ug nuclear extract; 10 mM Tris pH 7.5, 50 mM NaCl, 1 mM DTT (binding buffer), plus 5 mM MgCl2, 2.5 mM DTT, 0.25% Tween 20, 0.2% NP-40, 50 ng sheared salmon sperm DNA; 20 min on ice; protein in an extract; label: 5'-biotin on sense and antisense strands.

The record followed here is article PMC5133863.

For at least one entry, the source does not settle the construct or the ends of the probe. Results from cells or extracts need not show a direct contact. No signal at the amounts used counts as a negative. Protein sequences can lack the tags named with them.

Turning to “CCTTCAGGCTTAACAGCACCATCCAGAT (double strand) [Mutated nGRE probe]”, the binding result is listed as “no binding”. For the sequence “CCTTCAGGCTTGACAGTGACCTCCAGAT (double strand) [WT nGRE probe (cGH intron 1)]”, the binding result is on record as “binds”.
